# Results published in PMC12367838, “Relevance of kinetic interactions and co-formulants for plant protection product liver toxicity in vitro” (Archives of Toxicology, 2025).
# The source holds more than one record for some entries. The other results are left out here. The source may hold further records. Values that stand side by side differ for a reason that is not stated; dose, time, organism, isomer or construct need not be as stated for each record.
# System: HepaRG cells
# Experiment: Total RNA sequencing, differential gene expression
# Conditions: low sub-cytotoxic concentration, 24 h, vs solvent control
smiles,measurement,value
"C#CCOc1ccc(CCNC(=O)C(OCC#C)c2ccc(Cl)cc2)cc1OC (stereo not shown) [MDP, mandipropamid]",CYP3A4 Fold change,≈ twofold and 2.0688
